# According to PubChem BioAssay AID540276 (National Center for Advancing Translational Sciences (NCATS), 2011):
# Where “and” joins values, the source holds several entries; their conditions need not be identical. Equal entries are not always repeated. The campaign covered roughly 300,000 compounds. About 5,400 (1.8%) were called active. The shares of active, inactive and inconclusive entries below differ from those in the screen. Calls come from the whole dose curve; tested in HEK293 cells. A potency beside an inconclusive call is a rough fit, not a confirmed value.
# Test: qHTS for inhibitors of binding or entry into cells for Marburg Virus
# Details: Marburg virus pseudotyped entry inhibition, cell reporter; series mostly up to 37.8 µM
# Potency is the fitted concentration of half-maximal effect.
row,SMILES,Potency
1,Cc1ccc(C(=O)N/C(=C\c2ccc(-c3ccc(Cl)cc3)o2)C(=O)NCCCN(C)C)cc1,active: 6.31 µM
2,Cc1cc(NC(=O)C(C)SCC(=O)OCC(=O)Nc2c(C)cccc2C(C)C)no1 (stereo unspecified),inactive
3,O=C(Cc1ccc(Cl)cc1)Nc1ccc(-c2cc3ccccc3oc2=O)c(Cl)c1,"inconclusive: 3.16 µM [inhibitor, full curve]"
4,CC(=O)N[C@@H](C)C(=O)OC(C)C(=O)Nc1cccc([N+](=O)[O-])c1 (stereo partly specified),"inconclusive: 10 µM [activator, partial curve, poor fit]"
5,CCOC(=O)c1cnc2ccc(C)cc2c1Sc1ccccc1C(=O)OC,"inconclusive: 35.5 µM [inhibitor, single point]"
6,Cc1cccc(NC(=O)Nc2nnc(N3CCCC3)s2)c1,"inconclusive: 35.5 µM [inhibitor, partial curve, poor fit]"
7,CCCCn1c(CNC(=O)C23CC4CC(CC(C4)C2)C3)nnc1SCC(=O)Nc1ccc(F)cc1,"inconclusive: 35.5 µM [inhibitor, single point]"
8,O=C(Cc1ccccc1)N/N=C/c1ccc2c(c1)OCO2,inactive
9,CCCN1C(=O)SC(CC(=O)Nc2cccc3ccccc23)C1=O (stereo unspecified),"inconclusive: 35.5 µM [inhibitor, single point]"
10,Cc1cccc(Cn2c(=O)n(Cc3ccccc3)c(=O)c3sc4ccccc4c32)c1,inactive
11,CCS(=O)(=O)Nc1ccc(C(=O)NCCSc2ccccc2)cc1,inactive
12,O=C1c2cccc([N+](=O)[O-])c2C(=O)N1c1c[nH]c(=O)[nH]c1=O,inactive
13,COc1ccccc1-c1nnc(NC(=O)C2=COCCO2)o1,"inconclusive: 5.62 µM [activator, single point]"
14,CCCSc1nc(C)c2cc(C)cc(C)c2n1,"inconclusive: 20.6 µM [inhibitor, single point]"
15,CC(C(=O)Nc1ccccc1)n1nnc2sc3c(c2c1=O)CCCC3 (stereo unspecified),inactive
16,CCc1c(C)nc2ncnn2c1NCCc1ccccc1,"inconclusive: 29.1 µM [inhibitor, single point]"
17,CC(=O)c1ccc(NC(=O)C(C)Sc2nnc(C3CC3)n2C2CC2)cc1 (stereo unspecified),"inconclusive: 35.5 µM [inhibitor, single point]"
18,COc1cc(C2C=CC(=O)N=N2)ccc1OC(F)F (stereo unspecified),"inconclusive: 0.0224 µM [inhibitor, full curve]"
19,COc1ccc(-n2nnnc2-c2nc3ccccc3s2)cc1,"inconclusive: 0.1 µM [activator, full curve, poor fit]"
20,N#CCn1cnc2sc(-c3ccccc3)cc2c1=O,"inconclusive: 3.98 µM [activator, full curve, poor fit]"
21,O=C(/C(=N\O)n1cncn1)C1CCCCC1Cl (stereo unspecified),"inconclusive: 5.62 µM [inhibitor, single point]"
22,COC(=O)c1cc2ccccc2c(=O)s1,inactive
23,COc1ccc(OC)c(/C=C2\SC(N3CCCCC3)=NC2=O)c1,"inconclusive: 12.6 µM [inhibitor, partial curve, poor fit]"
24,Cc1cc(C(=O)Nc2c(F)cc(F)cc2Br)n(-c2ccccc2)n1,"inconclusive: 11.2 µM [activator, partial curve, poor fit]"

row,SMILES,Potency
1,COc1cnn(-c2ccccc2)c(=O)c1N(C)C,inactive
2,C=CCN(C(=O)CNC(=O)c1ccco1)C(C(=O)NC1CCCC1)c1cccs1 (stereo unspecified),"inconclusive: 8.91 µM [inhibitor, partial curve, poor fit]"
3,CCCCNCCOCCOc1ccccc1-c1ccccc1,"inconclusive: 1 µM [inhibitor, single point]"
4,O=S(=O)(c1ccc(F)cc1)c1snnc1-c1ccccc1,"inconclusive: 25.1 µM [inhibitor, partial curve, poor fit]"
5,COc1ccc(-n2nc(-c3ccc(C)cc3)c3cnc4cc(F)c(F)cc4c32)cc1,inactive
6,COC(=O)C1CCCCN1C(=O)c1ccc2oc(Cc3ccccc3)nc2c1 (stereo unspecified),inactive
7,Cc1ccc(C)c(N2CCN(CCCNC(=O)Cn3cc4c(n3)CCC(C)C4)CC2)c1 (stereo unspecified),inactive
8,COc1cccc(NC(=O)Cn2c(=O)n(CCc3cccc(C)c3)c(=O)c3ccccc32)c1,inactive
9,CCOC(=O)c1sc(=NC(=O)c2ccc(C)c(C)c2)n(C)c1C,"inconclusive: 7.08 µM [activator, partial curve, poor fit]"
10,CCOCCCn1c(=N)c(C(=O)NCc2ccccc2)cc2c(=O)n3ccccc3nc21,"inconclusive: 1.78 µM [inhibitor, partial curve, poor fit]"
11,O=C(NNC(=O)C12CC3CC(CC(C3)C1)C2)c1ccccn1,active: 10 µM
12,Cc1ccc(Nc2nnc(SCc3cc(=O)n4cc(C)ccc4n3)s2)cc1,"inconclusive: 7.08 µM [inhibitor, full curve, poor fit]"
13,Cc1c2cnn(-c3ccccc3)c(=O)c2c(C)n1C(C)C(=O)NCc1cccc(Br)c1 (stereo unspecified),"inconclusive: 35.5 µM [inhibitor, single point]"
14,Cc1ccc(NC(=O)CN(c2ccc(C)cc2)S(=O)(=O)c2cccc3nonc23)cc1,"inconclusive: 7.94 µM [inhibitor, partial curve, poor fit] and inconclusive: 8.91 µM [inhibitor, partial curve, poor fit]"
15,CCOC(=O)c1c(C)[nH]c(C(=O)Nc2ccc(C)c(Cl)c2)c1C,inactive
16,COc1cc(OC)cc(N2C(=O)CC(N3CCC(C(=O)N4CCCCC4)CC3)C2=O)c1 (stereo unspecified),"inconclusive: 1.26 µM [inhibitor, single point]"
17,CC(=O)Nc1cccc(Nc2nc(-c3cccs3)nc3ccccc23)c1,"inconclusive: 35.5 µM [inhibitor, single point]"
18,N#Cc1ccc(OCCOCCNC2CCCC2)cc1,"inconclusive: 29.1 µM [inhibitor, single point]"
19,CC(C)C(=O)Nc1cccc(C(=O)Nc2nnc(C(F)(F)F)s2)c1,"inconclusive: 5.62 µM [activator, single point]"
20,CCOc1ccccc1OCC(=O)OCC(=O)Nc1ncc(Cl)cc1Cl,inactive
21,COc1ccc(CCNC(=O)CSc2ccc(-c3cccs3)nn2)cc1OC,inactive
22,CN1CCN(Cc2ccc(-c3ccc(Cl)cc3)o2)CC1,"inconclusive: 29.1 µM [inhibitor, single point]"
23,CCOC(=O)N1CCN(C(=O)CSCC(=O)Nc2nc(-c3ccc(Cl)s3)cs2)CC1,inactive
24,COc1cccc(C(=O)C2CCCN(Cc3ccc4nonc4c3)C2)c1 (stereo unspecified),"inconclusive: 2.24 µM [inhibitor, partial curve, poor fit]"

# Reprinted at random: 3 compounds from above
row,SMILES,Potency
12,Cc1ccc(Nc2nnc(SCc3cc(=O)n4cc(C)ccc4n3)s2)cc1,"inconclusive: 7.08 µM [inhibitor, full curve, poor fit]"
1,COc1cnn(-c2ccccc2)c(=O)c1N(C)C,inactive
9,CCOC(=O)c1sc(=NC(=O)c2ccc(C)c(C)c2)n(C)c1C,"inconclusive: 7.08 µM [activator, partial curve, poor fit]"

# Going on with the list.

row,SMILES,Potency
1,CC1CCCCC1NC(=O)NC(=O)COC(=O)c1ccc(OC(F)F)cc1 (stereo unspecified),"inconclusive: 3.16 µM [inhibitor, single point]"
2,Cc1ccc(C(=O)Nc2oc(-c3ccccc3)cc2C#N)cc1,"inconclusive: 5.62 µM [inhibitor, single point]"
3,CCn1nnnc1NC(=O)c1cc(Cl)c(OC)c(Cl)c1,inactive
4,CCc1ccc(NC(=O)CSc2nc3cc(C(=O)OC)ccc3c(=O)n2Cc2ccco2)cc1,inactive
5,C/C(=N\NC(=O)c1ccc(CN2CCc3ccccc3C2)cc1)c1ccccc1O,"inconclusive: 5.01 µM [inhibitor, partial curve, poor fit]"
6,CC(C)CN1C(=O)c2ccc(C(=O)Nc3ccccc3C(=O)O)cc2C1=O,"inconclusive: 35.5 µM [inhibitor, single point]"
7,Oc1ccccc1/C=N/N1CCN(c2ccccn2)CC1,"inconclusive: 2.24 µM [activator, partial curve, poor fit]"
8,CCNC(=O)NC(=O)C(C)OC(=O)C(C)(C)Oc1ccc(Cl)cc1 (stereo unspecified),inactive
9,COc1ccc(OC)c(/C=C/C(=O)NCCc2nc3ccccc3[nH]2)c1,"inconclusive: 35.5 µM [inhibitor, partial curve, poor fit]"
10,CNc1sc(C(=O)c2cccs2)c(N)c1-c1nc2ccccc2s1,inactive
11,CC(NC(=O)c1cc2ccccc2oc1=O)c1ccccc1 (stereo unspecified),"inconclusive: 35.5 µM [activator, single point]"
12,Cc1ccn2c(Nc3ccc4c(c3)OCCO4)c(-c3ccc(N(C)C)cc3)nc2c1,"inconclusive: 12.6 µM [activator, partial curve, poor fit]"
13,Clc1ccc(-n2cnc3c(Cl)ncnc32)cc1Cl,inactive
14,CCN1C=C(Cc2ccccc2C)C2=C(C1)C(c1ccccc1C)C(C#N)=C(N)O2 (stereo unspecified),"inconclusive: 15.8 µM [inhibitor, single point]"
15,CCOC(=O)CCN1C(=O)[C@H]2[C@H]3[C@H](O)[C@H](O)C/C(=N/NC(=O)OCc4ccc(OC)cc4)[C@@H]3CC[C@@H]2C1=O,inactive
16,CCOc1ccc(-c2nnc(SCC(=O)N(CC)c3cccc(C)c3)o2)cc1,inactive
17,O=C(CSc1ncc(S(=O)(=O)c2ccccc2)c(=O)[nH]1)Nc1ccccc1Cl,inactive
18,CCOc1ccc(OCC)c(NC(=O)C2CCCN(S(=O)(=O)c3ccc(C)cc3)C2)c1 (stereo unspecified),"inconclusive: 3.98 µM [inhibitor, single point]"
19,Cc1ccc(C(=O)NC(C)c2ccc(-n3ccnc3)cc2)cc1S(=O)(=O)N1CCOCC1 (stereo unspecified),inactive
20,CC/C(=C\C(=O)c1ccncc1)Nc1ccc(O)cc1,"inconclusive: 5.62 µM [activator, single point]"
21,CC(=O)c1sc(N/N=C\c2ccc(Br)cc2)nc1C,inactive
22,COc1ccc(NC(=O)CSc2ccccn2)cc1,inactive
23,COC(=O)[C@@H]1[C@@H](C#N)C2(c3ccccc3-c3ccccc32)N(c2ccc(Cl)cc2)N1C#N,"inconclusive: 11.2 µM [inhibitor, single point]"
